# In all, about 33,000 sequences were measured (“E-score (-0.5 to 0.5)”: median about -0.0014, highest 2% from about 0.25 on). Some of the results follow.
# Biological target: T1, Cad1 (UniProt P24813)
# T1 sequence: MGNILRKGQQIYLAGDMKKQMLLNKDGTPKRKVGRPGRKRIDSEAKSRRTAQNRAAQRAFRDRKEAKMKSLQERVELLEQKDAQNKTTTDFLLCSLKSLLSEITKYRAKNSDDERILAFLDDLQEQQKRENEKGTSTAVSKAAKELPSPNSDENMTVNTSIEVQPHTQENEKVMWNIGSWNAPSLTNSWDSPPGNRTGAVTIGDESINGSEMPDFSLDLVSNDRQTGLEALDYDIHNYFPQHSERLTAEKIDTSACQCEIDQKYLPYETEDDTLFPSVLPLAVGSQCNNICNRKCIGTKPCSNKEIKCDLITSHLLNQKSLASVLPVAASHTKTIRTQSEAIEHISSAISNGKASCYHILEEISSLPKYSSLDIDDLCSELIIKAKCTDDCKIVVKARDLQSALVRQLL
# Assay: PBM E-score (8-mer binding enrichment) (E-score (-0.5 to 0.5)); higher = stronger / more preferred TF binding
# Settings: protein concentration: 100 nM; construct: GST-full length
# Summary of the method: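 Using PURExpress in vitro transcription/translation, GST-tagged yeast transcription factors were made in full-length or DNA-binding-domain form. These were applied at about 100-200 nM to double-stranded universal all-10-mer Agilent arrays, and bound protein was detected with fluorescent anti-GST. Scans were normalised with masliner before the Universal PBM Analysis Suite assigned E-scores to ungapped eight-base words pooled with their reverse complements.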
row,Sequence,PBM E-score
1,ACCCCCGG,-0.355
2,GGAACACA,0.0187
3,GTGCCACA,-0.115
4,AAAGGTCA,-0.0383
5,ATGTTGCA,0.0394
6,TACAATAA,0.0949
7,GGGACGAC,-0.0177
8,TACCATAA,0.043
9,AGCGACGA,-0.0382
10,CCTAACCA,0.0715
11,AGAGACCG,-0.221
12,GCCCAATA,0.0133
13,ATTGTCAC,0.0726
14,CCCCGCTA,-0.00641
15,GGTCGTTA,0.157
16,GGGTAGCA,-0.169
17,TCACCAGA,-0.171
18,AGATTGCA,-0.00032
19,CGTAGATA,0.113
20,CCGGGCAA,-0.0535
21,ATATAATG,0.0839
22,ACTGTGGG,-0.092
23,CACCAGTC,-0.215
24,ATCGTAGG,-0.034
25,GCGACACA,0.0376

row,Sequence,PBM E-score
1,GTGTCGCA,-0.124
2,GGGAGACA,-0.158
3,AATGTGCC,0.0719
4,GCGTTACC,-0.123
5,CCGCGAGC,-0.111
6,CGAGTGAC,-0.14
7,CCCGCGTC,0.0369
8,GAGTAGCC,-0.0672
9,TCCTTTAA,-0.0326
10,CGCGGATC,0.0644
11,CGCACAGC,-0.03
12,AACGGTAT,-0.0147
13,CCTGCATA,-0.0704
14,CCCAGTAC,-0.195
15,AGGACTTA,-0.194
16,GCCCCTCC,-0.187
17,AATGGGTA,0.0585
18,GTGATCAC,0.0299
19,ATGGGGAA,0.0647
20,AATCGACC,-0.051
21,AGTTCCCC,-0.0555
22,AAGTAAGG,0.0078
23,AAAGCATC,0.0361
24,TACTCGAA,-0.176
25,GGTAAACA,0.124

row,Sequence,PBM E-score
1,AGCTGAAC,0.0037
2,AAATCTGG,0.116
3,AAGGGGGC,-0.368
4,AGTGAAGC,-0.0117
5,GCTTCGAA,0.0485
6,ATATGTGG,0.0229
7,CTGCGCGA,0.13
8,AGACAACT,0.163
9,AATTCGGC,-0.0493
10,GCCTTTAA,-0.0797
11,GAGAGAGA,-0.0445
12,CGTCATAC,0.199
13,ACTTTGCT,-0.0301
14,CGGGTTAC,-0.00029
15,GCTGCAGC,0.115
16,TAAGGTAA,0.0771
17,GCGGATTA,0.182
18,CGCTAGAG,-0.115
19,AACGGATC,0.217
20,CGATTAGC,0.102
21,ATCATTCA,0.173
22,GAGGTGTA,-0.242
23,CAAGGGTG,0.0306
24,ACCCCTTA,-0.118
25,GGAACGAA,-0.0806

# Looked up one by one from the entries so far, three records:
row,Sequence,PBM E-score
17,GCGGATTA,0.182
25,GGAACGAA,-0.0806
6,ATATGTGG,0.0229

# (further entries)

row,Sequence,PBM E-score
1,GTGTAAGA,-0.0847
2,CTAGAGAG,-0.295
3,CTACCGTC,-0.0743
4,CTTCAGGC,-0.219
5,CCCAGGCC,-0.0863
6,AGCTCGAC,0.149
7,ATTACCTA,0.222
8,AGTTATAG,-0.0744
9,ATCTTCCA,-0.21
10,CGGTTGTC,0.0623
11,GCGACTAA,0.0968
12,ATATCTAC,0.135
13,GCCTGTAA,-0.0658
14,CTTGGCCA,0.0716
15,ACGTTTGA,0.0358
16,CTTGGCAC,-0.0775
17,GCCAGAAC,-0.0653
18,CGGGTAGC,-0.128
19,ATATAGCC,0.162
20,GAAAGAAC,0.0564
21,ACGGGGAC,-0.109
22,CGTTGACA,0.0657
23,AGCTTTAC,-0.0668
24,AGGAAGAA,-0.161
25,AGATAACC,0.00353

row,Sequence,PBM E-score
1,ACTACCAA,-0.102
2,ACCGCGGA,0.207
3,GCCCAGCA,-0.0353
4,AGTGAGAG,-0.0659
5,CAGAGACG,0.0945
6,ATGATAAT,0.1
7,ATGCTCGA,0.0495
8,CCGTCCCA,-0.08
9,CACAAGTC,-0.206
10,GGCCTGGA,-0.276
11,AAACATGA,0.0892
12,TCTCTTAA,0.148
13,ACCGGTAG,-0.176
14,ACGGATAC,0.219
15,CTTTGACA,0.0888
16,CACCAGCC,-0.066
17,CTTCGCAA,-0.0125
18,GGGCCATA,-0.0783
19,TATAGCGA,0.0154
20,GCTCATAA,0.0567
21,ATCAGGTC,-0.113
22,AATAATCG,0.147
23,AGTGTCCC,-0.0507
24,GATGGGTA,0.0269
25,AAAGTGGC,-0.081

row,Sequence,PBM E-score
1,CGCTCCGA,0.142
2,ACGCTTCC,0.0863
3,ACAATGGA,0.182
4,CGACTGAA,-0.0303
5,CTGTACTC,-0.0985
6,ACCCCCCA,-0.422
7,AATCCGAC,0.00376
8,CGTACTAA,0.0895
9,AGTGGGCG,0.0121
10,GAAAGATA,0.195
11,GGTGGCCA,-0.0726
12,TCTATACA,-0.0994
13,CAAGCGTG,0.0147
14,GACTAAAC,-0.0687
15,ATCAGATA,0.0774
16,CGGATAGA,0.192
17,CCCACAGA,-0.143
18,GTGGTGGA,-0.17
19,AGACTAGG,-0.187
20,ATCTTAGG,-0.238
21,AACCTCGT,-0.0552
22,GGTACCTA,0.0442
23,CGATTAGA,0.0495
24,GCCATTCC,-0.268
25,ATTCTGTG,0.204

row,Sequence,PBM E-score
1,GGCTTCTA,-0.026
2,ACACCACC,-0.171
3,CCTTCATC,-0.157
4,GGTATAAA,-0.0675
5,GAATGCTA,-0.063
6,GACCGCTA,-0.0151
7,TAACATAA,0.287
8,ACTACTTC,-0.0576
9,CAGTCTAC,-0.194
10,CGGCAACC,0.0827
11,AGGGAAAT,0.0436
12,AGGCGCAG,-0.273
13,CGCTATGC,0.00289
14,GATATATA,0.333
15,TGCTCTAA,-0.0091
16,CAAAACCG,0.0302
17,GATCGAGA,0.0272
18,CGACACAC,0.177
19,ATGCAGCC,0.162
20,AGACAGAG,-0.169
21,CGGAATGA,0.124
22,AAGCGAGG,-0.0687

# Part of the list above, with bars between the fields.
row | Sequence | PBM E-score
13 | CGCTATGC | 0.00289
14 | GATATATA | 0.333
